In publication PMC8511012:
These are yes or no findings as the source states them, for the method shown. Binding seen in cells or lysates may run through a third protein. Some binding calls cover weakened binding; strength is not graded here. Sequences can lack the tags named with a protein.

Amino acid sequences for entries named in this document (tags omitted).
UniProt Q9UKB1: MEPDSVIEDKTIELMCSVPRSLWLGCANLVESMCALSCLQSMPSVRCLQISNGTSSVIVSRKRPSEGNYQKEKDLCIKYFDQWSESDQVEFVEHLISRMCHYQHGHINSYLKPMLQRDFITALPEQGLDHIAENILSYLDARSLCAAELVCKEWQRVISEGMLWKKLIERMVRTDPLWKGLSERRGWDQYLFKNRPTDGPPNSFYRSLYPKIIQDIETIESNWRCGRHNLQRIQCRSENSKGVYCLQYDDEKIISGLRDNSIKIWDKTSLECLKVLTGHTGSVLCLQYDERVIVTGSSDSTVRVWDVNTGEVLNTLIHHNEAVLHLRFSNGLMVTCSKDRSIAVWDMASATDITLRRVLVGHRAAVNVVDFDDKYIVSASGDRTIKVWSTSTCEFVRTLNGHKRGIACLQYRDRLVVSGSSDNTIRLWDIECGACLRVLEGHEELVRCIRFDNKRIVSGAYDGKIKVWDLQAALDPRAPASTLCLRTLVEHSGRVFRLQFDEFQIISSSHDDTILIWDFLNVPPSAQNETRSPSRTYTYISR

T1: Hypermethylated in cancer 1 (HIC1), HA-tagged (UniProt Q14526)
T1 sequence: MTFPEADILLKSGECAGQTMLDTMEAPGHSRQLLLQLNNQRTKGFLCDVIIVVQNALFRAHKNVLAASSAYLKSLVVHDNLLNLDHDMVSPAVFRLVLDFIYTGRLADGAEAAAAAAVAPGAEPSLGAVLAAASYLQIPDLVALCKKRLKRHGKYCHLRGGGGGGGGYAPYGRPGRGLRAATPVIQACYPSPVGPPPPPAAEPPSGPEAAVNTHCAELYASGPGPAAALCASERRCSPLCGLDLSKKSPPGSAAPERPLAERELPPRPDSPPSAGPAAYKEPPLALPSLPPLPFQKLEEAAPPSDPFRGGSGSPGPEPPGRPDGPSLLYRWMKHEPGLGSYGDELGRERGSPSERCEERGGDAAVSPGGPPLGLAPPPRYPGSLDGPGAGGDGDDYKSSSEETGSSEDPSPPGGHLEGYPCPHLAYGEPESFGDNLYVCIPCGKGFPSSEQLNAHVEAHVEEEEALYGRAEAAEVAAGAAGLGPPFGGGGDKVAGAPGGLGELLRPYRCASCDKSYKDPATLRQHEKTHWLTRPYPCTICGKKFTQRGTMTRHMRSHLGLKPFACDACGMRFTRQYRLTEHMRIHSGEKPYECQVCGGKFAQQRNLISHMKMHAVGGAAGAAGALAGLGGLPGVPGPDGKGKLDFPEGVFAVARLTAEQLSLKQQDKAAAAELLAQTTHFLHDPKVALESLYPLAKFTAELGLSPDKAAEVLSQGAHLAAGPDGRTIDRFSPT


Key:
[1] = biological target: T1, Hypermethylated in cancer 1 (HIC1), HA-tagged; test: co-IP; HEK-293T cells transfected with FLAG-tagged FBXW11 or HA-tagged HIC1, or both, for 48 h; lysates incubated with antibodies against FLAG tag or HA tag at 4 °C for 3 h; immunoprecipitates analysed by western blotting
[2] = biological target: F-box and WD repeat domain containing 11 (FBXW11), FLAG-tagged (UniProt Q9UKB1); test: as above

binding [1] | binding [2] | Molecule
binds |  | F-box and WD repeat domain containing 11 (FBXW11), FLAG-tagged (from UniProt Q9UKB1 1-542)
 | binds | Hypermethylated in cancer 1 (HIC1), HA-tagged (protein, UniProt Q14526 1-733) MTFPEADILLKSGECAGQTMLDTMEAPGHSRQLLLQLNNQRTKGFLCDVIIVVQNALFRAHKNVLAASSAYLKSLVVHDNLLNLDHDMVSPAVFRLVLDFIYTGRLADGAEAAAAAAVAPGAEPSLGAVLAAASYLQIPDLVALCKKRLKRHGKYCHLRGGGGGGGGYAPYGRPGRGLRAATPVIQACYPSPVGPPPPPAAEPPSGPEAAVNTHCAELYASGPGPAAALCASERRCSPLCGLDLSKKSPPGSAAPERPLAERELPPRPDSPPSAGPAAYKEPPLALPSLPPLPFQKLEEAAPPSDPFRGGSGSPGPEPPGRPDGPSLLYRWMKHEPGLGSYGDELGRERGSPSERCEERGGDAAVSPGGPPLGLAPPPRYPGSLDGPGAGGDGDDYKSSSEETGSSEDPSPPGGHLEGYPCPHLAYGEPESFGDNLYVCIPCGKGFPSSEQLNAHVEAHVEEEEALYGRAEAAEVAAGAAGLGPPFGGGGDKVAGAPGGLGELLRPYRCASCDKSYKDPATLRQHEKTHWLTRPYPCTICGKKFTQRGTMTRHMRSHLGLKPFACDACGMRFTRQYRLTEHMRIHSGEKPYECQVCGGKFAQQRNLISHMKMHAVGGAAGAAGALAGLGGLPGVPGPDGKGKLDFPEGVFAVARLTAEQLSLKQQDKAAAAELLAQTTHFLHDPKVALESLYPLAKFTAELGLSPDKAAEVLSQGAHLAAGPDGRTIDRFSPT
